Source: patent US20110207139
A negative result means that nothing was seen under these conditions. For part of these data: Protein sequences can lack the tags named with them. For part of these data: For at least one entry, the source does not settle the construct or the ends of the probe.

Legend:
Test in all cases: enzyme reaction in vitro
[1] = tested on: REase from isolate Sa27-m20, partially purified (bacterial isolate Sa27-m20); conditions: purified native protein
[2] = tested on: T1, SgeI (methylation-specific REase), recombinant (Streptomyces griseoflavus RFL11); conditions: purified recombinant protein
T1 sequence: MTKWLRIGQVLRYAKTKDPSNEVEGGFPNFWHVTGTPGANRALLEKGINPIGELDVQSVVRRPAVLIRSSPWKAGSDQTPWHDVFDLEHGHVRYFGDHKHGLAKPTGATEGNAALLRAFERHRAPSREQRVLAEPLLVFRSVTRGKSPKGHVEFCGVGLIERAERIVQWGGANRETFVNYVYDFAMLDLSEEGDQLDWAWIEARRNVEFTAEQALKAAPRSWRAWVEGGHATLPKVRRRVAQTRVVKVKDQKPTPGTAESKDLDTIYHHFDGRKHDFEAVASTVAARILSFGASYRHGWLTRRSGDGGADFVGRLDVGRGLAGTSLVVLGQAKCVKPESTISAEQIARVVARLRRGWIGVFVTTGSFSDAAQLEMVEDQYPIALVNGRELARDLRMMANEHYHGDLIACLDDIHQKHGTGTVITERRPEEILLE

[3] = tested on: SguI (methylation-specific REase), partially purified (Streptomyces griseus RFL12); conditions: purified native protein
[4] = 10 mM MgCl2, 37 C 16 h, label: 5'-33P

## ACTTCACGCCAGAATACGAAAGACCAGGTATATGCACAAAATGAGATGCTT (double strand) [MZ-95/MZ-98 hemimethylated, m5C in bottom strand]
[1]; 5mC at second C of CCWGG, bottom strand, only small fraction cleaved in 16 h, 12/16 nt from m5C, label: 5'-33P or 3'-32P cordycepin
  activity on this sequence: active
[2]; 5mC at second C of CCWGG, bottom strand, nearly complete, cuts 12/16 nt from m5C, 5 mM MgCl2, 37 C 60 min, label: 5'-33P or 3'-32P cordycepin
  activity on this sequence: active
[3]; 5mC at second C of CCWGG, bottom strand, only small fraction cleaved in 16 h, 12/16 nt from m5C, 10 mM MgCl2, label: 5'-33P or 3'-32P cordycepin
  activity on this sequence: active

## ACTTCACGCCAGAATACGAAAGACCAGGTATATGCACAAAATGAGATGCTT (double strand) [MZ-95/MZ-97 unmethylated oligoduplex (5'-0)]
[1]; [4]
  activity on this sequence: not active
[2]; 5 mM MgCl2, 100 mM KCl, pH 8.0, 37 C 60 min, label: 5'-33P
  activity on this sequence: not active
[3]; [4]
  activity on this sequence: not active

## ACTTCACGCCAGAATACGAAAGACCAGGTATATGCACAAAATGAGATGCTT (double strand) [MZ-96/MZ-97 hemimethylated, m5C in top strand]
[1]; 5mC at second C of CCWGG, top strand, only small fraction cleaved in 16 h, 12/16 nt from m5C, label: 5'-33P or 3'-32P cordycepin
  activity on this sequence: active
[2]; 5mC at second C of CCWGG, top strand, cuts 12/16 nt from m5C with alternative 1-nt shifted cut in 5'-D and 3'-D, 5'-D incomplete, label: 5'-33P or 3'-32P cordycepin
  activity on this sequence: active
[3]; 5mC at second C of CCWGG, top strand, only small fraction cleaved in 16 h, 12/16 nt from m5C, 10 mM MgCl2, label: 5'-33P or 3'-32P cordycepin
  activity on this sequence: active
